Taken from: PubChem BioAssay AID1224826 (NIAID, 2016)
Purpose: 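Knock-downs that raise or lower Tnf reporter signal after endotoxin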 (primary screen). Cells: RAW264.7 G9 macrophages from mouse bearing reporters for p65 (GFP) and the Tnf promoter (mCherry). Reagent: siRNA pool against mouse genes, 100 nM. Time to read-out: 16 h of LPS stimulation, after 2 days of siRNA transfection. Conditions: bacterial lipopolysaccharide (Salmonella minnesota R595), 10 ng/ml. Measured: 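Nuclear mCherry signal of the Tnf promoter reporter measured by imaging after background removal, scaled to each plate median and turned into robust z-scores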. Reading the numbers: Tnf reporter robust z-score: higher = stronger Tnf promoter reporter signal after LPS. Hit rule: 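a well counts as active at a score of -1.3 or below (Tlr4 knock-down control median) or above 3 (raised signal); controls and wells holding fewer than 50 cells are excluded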. Meaning of the calls: active = Tnf reporter clearly lowered or raised; inactive = no clear change in Tnf reporter.
The whole screen tested about 17,000 reagents; this is a random part of them. About 1,110 of them (6.6%) were called active. 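Active means lowered or raised reporter signal; replicate intensities are raw and not normalised per plate.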 Further read-outs or replicates are left out here.

Against Gsdme, the values are Tnf reporter robust z-score -0.4; fewer than 50 cells in well enough cells in well; inactive.
With knock-down of Zftraf1, the record shows Tnf reporter robust z-score 0.56; fewer than 50 cells in well enough cells in well; inactive.
Silencing of Or6c68 resulted in: fewer than 50 cells in well fewer than 50 cells per well; well left out of calls; inactive.
Hcfc1 showed Tnf reporter robust z-score 1.3; fewer than 50 cells in well enough cells in well; inactive.
For Tmem183a the deposit lists Tnf reporter robust z-score 0.23; fewer than 50 cells in well enough cells in well; inactive.
Haus3 showed Tnf reporter robust z-score 0.8; fewer than 50 cells in well enough cells in well; inactive.
Knock-down of Bri3 gave: fewer than 50 cells in well fewer than 50 cells per well; well left out of calls; inactive.
With knock-down of Vamp7, the screen gave Tnf reporter robust z-score 2.01; fewer than 50 cells in well enough cells in well; inactive.
Depletion of D130079A08Rik came out at: Tnf reporter robust z-score -0.2; fewer than 50 cells in well enough cells in well; inactive.
With knock-down of Platr26, the screen gave Tnf reporter robust z-score -0.78; fewer than 50 cells in well enough cells in well; inactive.
After knock-down of Rasl10a, the record shows Tnf reporter robust z-score -0.03; fewer than 50 cells in well enough cells in well; inactive.
Depletion of Kcnmb1 gave: Tnf reporter robust z-score 1.21; fewer than 50 cells in well enough cells in well; inactive.
Depletion of Imp4 gave: Tnf reporter robust z-score 3.3; fewer than 50 cells in well enough cells in well; active.
With knock-down of 1700029M20Rik the results were Tnf reporter robust z-score 0.78; fewer than 50 cells in well enough cells in well; inactive.
Against Psapl1, the entry reads fewer than 50 cells in well fewer than 50 cells per well; well left out of calls; inactive.
For Gpr37l1, the entry reads Tnf reporter robust z-score -0.33; fewer than 50 cells in well enough cells in well; inactive.
Silencing of Krt84 came out at: Tnf reporter robust z-score 0.51; fewer than 50 cells in well enough cells in well; inactive.
Against Mrpl55 the deposit lists Tnf reporter robust z-score 0.52; fewer than 50 cells in well enough cells in well; inactive.
After knock-down of Orc1, the screen gave Tnf reporter robust z-score 0.47; fewer than 50 cells in well enough cells in well; inactive.
Ncoa5 gave Tnf reporter robust z-score -1.11; fewer than 50 cells in well enough cells in well; inactive.
Silencing of Phgdh resulted in: Tnf reporter robust z-score 0.09; fewer than 50 cells in well enough cells in well; inactive.
